In publication PMC2785842:
These are yes or no findings as the source states them, for the method shown. In cells and extracts the contact can be indirect. Some binding calls cover weakened binding; strength is not graded here.

Key:
[1] = molecular target: T1, c-FOS (human (endogenous in MCF-7)), P01100; experiment: co-IP; lysates of MCF-7 cells treated with 10 nM HRG over a time course; 0.5 mg lysate protein with 6 ug antibody (c-FOS, FRA-1 or FHL2) overnight at 4 C, protein G Plus/Protein A-agarose 3 hrs, washed three times with HNTG buffer (20 mM HEPES pH 7.5, 150 mM NaCl); Western blot for c-JUN, c-FOS, FRA-1 or FHL2; endogenous proteins; details: remark: other sources report otherwise
T1 chain: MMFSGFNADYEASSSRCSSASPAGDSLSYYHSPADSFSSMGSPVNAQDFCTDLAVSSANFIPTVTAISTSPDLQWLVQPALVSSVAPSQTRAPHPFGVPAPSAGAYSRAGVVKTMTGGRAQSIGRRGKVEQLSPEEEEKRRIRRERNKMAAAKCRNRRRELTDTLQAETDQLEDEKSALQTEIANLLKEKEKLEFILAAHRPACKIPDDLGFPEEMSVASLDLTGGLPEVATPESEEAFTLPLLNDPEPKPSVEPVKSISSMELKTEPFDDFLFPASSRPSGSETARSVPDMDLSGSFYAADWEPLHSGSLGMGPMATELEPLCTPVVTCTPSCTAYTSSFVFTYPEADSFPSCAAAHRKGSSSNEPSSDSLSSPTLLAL

[2] = molecular target: T1, c-FOS (human (endogenous in MCF-7)), …; experiment: co-IP; immunoprecipitation from HRG-treated MCF-7 cells, up to 24 hr after HRG stimulation; unpublished data; details: remark: other sources report otherwise
[3] = molecular target: c-FOS (human (endogenous in MCF-7)) (UniProt P01100); experiment: co-IP; lysates of MCF-7 cells treated with 10 nM HRG over a time course; 0.5 mg lysate protein with 6 ug antibody (c-FOS, FRA-1 or FHL2) overnight at 4 C, protein G Plus/Protein A-agarose 3 hrs, washed three times with HNTG buffer (20 mM HEPES pH 7.5, 150 mM NaCl); Western blot for c-JUN, c-FOS, FRA-1 or FHL2; endogenous proteins
[4] = molecular target: T2, FHL2 (four and a half LIM domains 2) (human (endogenous in MCF-7)) (UniProt Q14192); experiment: as above
T2 sequence: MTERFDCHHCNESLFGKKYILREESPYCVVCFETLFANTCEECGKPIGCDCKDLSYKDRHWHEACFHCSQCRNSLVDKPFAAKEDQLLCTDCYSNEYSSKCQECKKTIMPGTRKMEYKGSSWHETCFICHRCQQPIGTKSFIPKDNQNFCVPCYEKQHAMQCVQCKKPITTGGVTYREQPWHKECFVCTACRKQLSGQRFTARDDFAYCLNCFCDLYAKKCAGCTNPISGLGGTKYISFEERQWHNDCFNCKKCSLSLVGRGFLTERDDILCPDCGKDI

B1: FRA-1 (FOSL-1 protein), P15407 1-271 (protein)
chain: MFRDFGEPGPSSGNGGGYGGPAQPPAAAQAAQQKFHLVPSINTMSGSQELQWMVQPHFLGPSSYPRPLTYPQYSPPQPRPGVIRALGPPPGVRRRPCEQISPEEEERRRVRRERNKLAAAKCRNRRKELTDFLQAETDKLEDEKSGLQREIEELQKQKERLELVLEAHRPICKIPEGAKEGDTGSTSGTSSPPAPCRPVPCISLSPGPVLEPEALHTPTLMTTPSLTPFTPSLVFTYPSTPEPCASAHRKSSSSSGDPSSDPLGSPTLLAL
binding [1]: binds | binding [2]: binds

B2: FHL2 (four and a half LIM domains 2) (protein, UniProt Q14192 1-279)
chain: T2 sequence
binding [3]: binds

B3: FRA-1 (FOSL-1 protein) (protein, UniProt P15407 1-271)
chain: B1 chain
binding [4]: binds
